# Inconclusive means that the source gave no clear call. Such entries were picked first, then a sample of the others. A potency beside an inconclusive call is a rough fit, not a confirmed value. The source made the active and inactive calls. The calls were made as follows: active = hit-call score of the fitted dose curve at least 0.9, where 1 is the maximum; inconclusive = response in the unintended direction; inactive = score below 0.9. *1 amine or outer side, *2 acyl side, *3 side chain or, on linkers, in order; H or OH if unused. Where a SMILES comes first, the peptide text is derived from it. Bridges are numbered along the chain shown (N, C = ends). [ ]: non-standard residue; d: D form. The star is where a group is joined. X1 = NC1=N[C@@H]([C@H](N[*:1])C(=O)[*:2])C[C@H](O)N1; ΔAla(Z-3-ureido) = NC(=O)N/C=C(\N)C(=O)O; β3hOrn = NCCC[C@H](N)CC(=O)*; Dap = NC[C@H](N)C(=O)O
# Sequences of proteins named here, by UniProt entry; tags and fusion partners are left off.
# UniProt P04637, whole entry, looked up: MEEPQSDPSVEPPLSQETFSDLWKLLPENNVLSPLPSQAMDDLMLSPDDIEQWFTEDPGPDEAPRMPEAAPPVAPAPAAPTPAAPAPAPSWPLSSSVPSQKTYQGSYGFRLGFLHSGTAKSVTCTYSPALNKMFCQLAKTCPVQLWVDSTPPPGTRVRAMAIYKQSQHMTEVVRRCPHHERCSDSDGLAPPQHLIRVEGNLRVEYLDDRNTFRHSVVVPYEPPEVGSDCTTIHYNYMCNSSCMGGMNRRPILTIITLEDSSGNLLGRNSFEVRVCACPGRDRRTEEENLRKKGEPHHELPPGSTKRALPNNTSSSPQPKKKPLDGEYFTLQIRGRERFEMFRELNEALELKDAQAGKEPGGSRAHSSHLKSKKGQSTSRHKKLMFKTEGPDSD
# Target: Cellular tumor antigen p53 (Homo sapiens) (UniProt P04637)
# Assay: TOX21_p53_BLA_p3_ratio: Tox21 HCT-116 p53 Agonism Beta-lactamase Assay, Ratio, Phase 3 (AID 2283596)
# Excerpt: TOX21_p53_BLA_p3 is a cell-based, single-readout assay that uses HCT116, a human intestinal cell line, […] in a 1536-well plate.TOX21_p53_BLA_p3_ratio is an assay readout measuring reporter gene via receptor activity and designed using inducible reporter (beta lactamase induction) detected with GAL4 b-lactamase reporter gene. The signal is derived from the ratio of cleaved (ch2) to uncleaved (ch1) reporter gene substrate used as the measure of target activity.Data from the assay component TOX21_p53_BLA_p3_ratio was analyzed into 1 assay endpoint. This assay endpoint, TOX21_p53_BLA_p3_ratio, was analyzed in the positive analysis fitting direction relative to DMSO as the negative control and baseline of activity. Using a type of inducible reporter, gain-of-signal activity can be used to understand changes in the reporter gene as they relate to the gene TP53. Furthermore, this assay endpoint can be referred to as a primary readout, because this assay has produced multiple assay endpoints where this ratio serves a reporter gene function to understand target activity. To generalize the intended target to other relatable targets, this assay endpoint is annotated to the DNA binding intended target family, where the subfamily is tumor suppressor.
# Thawing Method: Place 14 mL of pre-warmed thaw medium into a 15 mL of conical tub. Remove the vial of cells to be thawed from liquid nitrogen and thaw rapidly by placing at 37C in a water bath with gentle agitation for 1-2 minutes. Decontaminate the vial by wiping with 70% ethanol before opening in a biological safety cabinet. Transfer the vial contents drop-wise into 14 mL of thaw medium in a sterile 15-mL conical tub. Centrifuge cells at 900 rpm for 4 minutes and resuspend in thaw medium. Transfer contents to the T75 tissue culture flask containing Thaw Medium and place flask in a humidified 37C/5% CO2 incubator. Switch to growth medium at first passage.Propagation Method: Aspirate medium, rinse once in DPBS, add 0.25% Trypsin/EDTA and swirl to coat the cell evenly. Add an equal volume of Growth Medium to inactivate Trypsin after 2-3 minutes incubation at 37C. Centrifuge cells at 900 rpm for 4 minutes and resuspend in growth medium. Cell should be passage or fed at least twice a week.Assay Protocol: Harvest cells from culture in growth medium and resuspend in assay medium. 2.2 Dispense 4000 cells/5 uL/well into 1536-well black/clear bottom plates using a Multidrop dispenser. After the cells were incubated at 37C for 5 hours, 23 nL of compounds dissolved in DMSO were transferred to the assay plate by a PinTool resulting in a 217-fold dilution. Incubate the plates for 16 hours at 37C, 5% CO2. Add 1 uL of 6X LiveBLAzer FRET B/G (CCF4-AM) Substrate Mixture to each well using a BioRAPTR dispenser and incubate the plates at room temperature for 2 hours. Measure fluorescence intensity at 460 and 530 nm emission and 405 nm excitation by an Envision detector. Data is expressed as the ratio of 460nm/530nm emissions. Add 4 uL of Cell-titer Glo to each well using BioRAPTR and incubate the plates at room temperature for 2 hours. Measure fluorescence intensity by a VewLux plate reader.
Compound,AC50,outcome
CC1(N)CCC(C(C)(C)N)CC1 (stereo not given),inconclusive: 46.1 µM,
Cc1cc(-c2ccc(N=Nc3ccc4c(S(=O)(=O)O)cc(S(=O)(=O)O)c(N)c4c3O)c(C)c2)ccc1N=Nc1ccc2c(S(=O)(=O)O)cc(S(=O)(=O)O)c(N)c2c1O,inconclusive: 23 µM,
COC(=O)[C@H]1[C@H]2C[C@@H]3c4[nH]c5ccccc5c4CCN3C[C@H]2C[C@@H](OC(=O)c2cc(OC)c(OC)c(OC)c2)[C@@H]1OC,inconclusive: 23 µM,
Cc1c(O)c(=O)ccn1C,inconclusive: 23 µM,
CC(=O)OCC(=O)[C@@]1(O)CC[C@H]2[C@@H]3CCC4=CC(=O)C=C[C@]4(C)[C@@]3(F)[C@@H](O)C[C@@]21C,inconclusive: 10.3 µM,
C[C@]12C=CC(=O)N[C@@H]1CC[C@@H]1[C@@H]2CC[C@]2(C)[C@@H](C(=O)Nc3cc(C(F)(F)F)ccc3C(F)(F)F)CC[C@@H]12,inconclusive: 35.3 µM,
CC(O)CN(C)C (stereo not given),inconclusive: 23 µM,
CN(C)CCc1c[nH]c2ccc(Cn3cncn3)cc12,inconclusive: 23 µM,
CN1C(=O)CC(C)(c2ccccc2)C1=O (stereo not given),inconclusive: 23 µM,
O=C(NCCNCC(O)COc1ccc(O)cc1)N1CCOCC1 (stereo not given),inconclusive: 39.2 µM,
NCCNCCO,,inactive
CCOC(=O)c1ncn2c1CN(C)C(=O)c1cc(F)ccc1-2,inconclusive: 23 µM,
O=C(O)c1ccc[n+]([O-])c1,,inactive
O=C(O)c1cccc(O)c1,inconclusive: 85.2 µM,
CCN(CC)c1ccc(N)cc1,active: 69.7 µM,
NCCC[C@H](N)CC(=O)N[C@H]1CNC(=O)[C@H]([C@H]2C[C@H](O)NC(N)=N2)NC(=O)/C(=C/NC(N)=O)NC(=O)[C@H](CO)NC(=O)[C@H](CO)NC1=O (β3hOrn-[Dap]SS[ΔAla(Z-3-ureido)][X1]; lactam 1-C),inconclusive: 23 µM,
COC(=O)[C@H]1[C@H]2C[C@@H]3c4[nH]c5cc(OC)ccc5c4CCN3C[C@H]2C[C@@H](OC(=O)/C=C/c2cc(OC)c(OC)c(OC)c2)[C@@H]1OC,inconclusive: 10.3 µM,
NCCNCCNCCN,inconclusive: 45.6 µM,
Cc1c(C(=O)O)cccc1[N+](=O)[O-],inconclusive: 46.7 µM,
CCC(=O)O[C@H]1CC[C@H]2[C@@H]3CCc4cc(O)ccc4[C@H]3CC[C@]12C,,inactive

# Three entries from above, with tabs:
Compound	AC50	outcome
CC1(N)CCC(C(C)(C)N)CC1 (stereo not given)	inconclusive: 46.1 µM	
O=C(O)c1ccc[n+]([O-])c1		inactive
Cc1c(C(=O)O)cccc1[N+](=O)[O-]	inconclusive: 46.7 µM	

# Later entries:

Compound,AC50,outcome
CCCCCCCN,inconclusive: 46.8 µM,
Cc1cc(C(=O)O)ccc1[N+](=O)[O-],,inactive
CCCCCCCCCOC(=O)c1ccccc1C(=O)OCCCCCCCCC,inconclusive: 46 µM,
NC(=O)CCCCC1CCSS1 (stereo not given),inconclusive: 23 µM,
CC(C)[N+](C)(C)CC(O)COc1cccc2ccccc12 (stereo not given),,inactive
CC1=C(O)C(=O)OC1C (stereo not given),inconclusive: 46.1 µM,
CCc1cn([C@H]2C[C@H](O)[C@@H](CO)O2)c(=O)[nH]c1=O,inconclusive: 23 µM,
O=C(Nc1ccccc1)Nc1ccccc1,inconclusive: 46.2 µM,
O=C1CCCCO1,,inactive
O=C(O)CSCC(=O)NC1CCSC1=O (stereo not given),inconclusive: 2.92e-05 µM,
CCCOCCOCCO,inconclusive: 46 µM,
Cc1cc(C)c(C=C2C(=O)Nc3ccccc32)[nH]1,inconclusive: 43 µM,
NC(=O)NC(=O)Cc1ccccc1,,inactive
COc1cc2[nH]c(C)c(CCN3CCN(c4ccccc4)CC3)c2cc1OC,,inactive
Oc1cccc2cc3cccc(O)c3c(O)c12,inconclusive: 46.3 µM,
C[C@]12CC[C@@H]3c4ccc(OS(=O)(=O)O)cc4CC[C@H]3[C@@H]1CCC2=O,inconclusive: 17.2 µM,
CN(C)C(=O)CNC(=O)Cc1ccccc1,inconclusive: 38.1 µM,
C[n+]1ccccc1/C=N/O,,inactive
c1ccc(CN(CC2=NCCN2)c2ccccc2)cc1,,inactive
CO/N=C(/C(=O)N[C@@H]1C(=O)N2C(C(=O)OCOC(=O)C(C)(C)C)=C(C)CS[C@H]12)c1csc(N)n1,inconclusive: 23 µM,

# From PubChem BioAssay (EPA / NIEHS)
